Results on 107 sequences are retold here after PubChem BioAssay AID1508600 (Functional Genomics Laboratory (NCATS/FGL), 2020).

The whole screen tested about 53,000 sequences, of which about 3,700 (7%) were called active.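 How the source made its calls: active means gene knockdowns whose robust z-score for IL-1 alpha signal is at least 2 or at most -2, so actives lie on both sides; inactive means the rest.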 Some of the results follow.

The assay is described as follows: Components of the Cytosolic LPS Sensing Pathway: Gene Identification via Genome-wide siRNA Screen.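 Further: robust z of the log signal after scaling to non-targeting control siRNA wells of the plate.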 The note with it: RAW264.7 macrophages, IL-1a HTRF, actives lie on both sides, screened at 100 nM (by protocol), cells primed 5 h with Pam3CSK4 first. Summed up:
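Three distinct siRNAs per gene were tested singly at 100 nM in RAW264.7 macrophages. Following Pam3CSK4 priming and 24 hour LipidA transfection, IL-1a secretion was read by HTRF.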
On the technique in general: Time-resolved FRET reads energy transfer from a long-lived donor to a nearby acceptor.
Take GCCUGAUCCCAAUCGUGUATT against Smr2: the z-score is inactive: 0.288.
Next, GGACGAUGAGAGCAAUGACTT against Klk1b11: inactive: 1.07; GGCAAUUGAUAUGGUUCAGTT against Magea9-ps: inactive: -1.22.
Next, CCUACAGUCAAGCAGAGCCTT against Klri1: inactive: -0.241; GGAGAAAAUUCAAGUCACCTT against Olfr663: inactive: 0.215.
Next, CGUUCUAGUGACAUGUACATT against Sh2d3c: inactive: 1.85.
Regarding GGAGGCAUACAUGACAAAATT against Cop1, the z-score is inactive: 0.953.
On to GGGACUUUAUAAAGAACUGTT against Ranbp1, for which the z-score was inactive: 1.34.
The same measure for GGACACUCUUCCAAAUACATT against Plb1: inactive: 1.67; for GGGAAUCCUCAAAUAAAGCTT against Tbc1d10c: inactive: -0.146.
Next, GCCGUGUCCUUGCAUAACUTT against Lypd4: inactive: -0.523; GCUCAAAUUGCACUAUCUATT against Gpt2: inactive: -0.463.
The same measure for CCUCCACUCACUUGUGACUTT against Slc35a4: inactive: -0.0839; for CCUGAAUUACCUCAUAUAUTT against Stat5b: inactive: 0.113; for GGAUUUCUGGAACCUUCAUTT against Caskin2: inactive: -1.43.
Turning to GGCGAGACCAUCCAUAUGUTT against Dusp19, the z-score was inactive: -1.55.
The same measure for GCUGGCUGUUGGAUAAGUGTT against Olfr1112: active: 2.45.
The same measure for GGAAGAACUUUUGGUUAUUTT against Dnah14: inactive: 1.35.
The same measure for GGACAACUAGCAGAUGGGATT against L3mbtl2: inactive: -1.1.
On to GCCGUCACAAGAACUGAACTT against Apon, for which the z-score is inactive: -0.24.
For GCAGCAUACAUAAUGUAACTT against Rbm48, the z-score was inactive: 0.726.
Next, GGACAAACACUGUUUAUUCTT against Phf8: inactive: 0.0679; GCCAUUCUAAGCUGCCAAATT against Mcat: inactive: -0.000938; GGUAGAGUCUAACACGUGGTT against Ctsw: inactive: 1.05.
Next, GUGACCACUUUGCCACUUGTT against Olfr1259: inactive: -0.128; GGCAUCUUGGCACUCUACUTT against Tmem179b: inactive: 0.507; CCACUUUAGCUCCUUUAAGTT against Tet3: inactive: -0.438.
As for GCUUACCAAAAGGAUAUCCTT against Zfand2b, the z-score is inactive: -1.94.
The same measure for GCAUAGCUAACUCAGCAUATT against Map2k2: inactive: 1.09.
Regarding GGGUCAGAAUUUUUGCUUCTT against Olfr328, the z-score was inactive: -0.0364.
GCUCAAUUUACAAAAGCCCTT against Pik3c2a: the z-score is inactive: -0.961.
On to CCCUCAGUUGUACCAUCAATT against Olfr298, for which the z-score was inactive: -1.93.
The same measure for CCAACAAUUCUGCCAAGACTT against Arrb2: active: -2.57.
Next, GGCAUUACCAUUGGAUCUGTT against Mgl2: inactive: 0.219; GGGAAUGGCUUGAUUCUGUTT against Olfr609: inactive: 0.514; GGAAAGUUGAUAGAAAGUGTT against R3hcc1l: inactive: 0.114.
Next, GGAAAUCAACAUGUUAAAGTT against Mink1: inactive: 1.21.
GGUGCUGAGGCUGAUUCUCTT against Capn15: the z-score was active: 3.35.
Next, GGAAUCUGCAUGGUUUGCCTT against Vgll4: inactive: 0.466.
The same measure for GGAAAUACAAAUGAGUUGATT against Txndc9: inactive: 0.622.
The same measure for GGCCUUUCUCACACUGCAUTT against Fto: inactive: -0.29; for GGAUUGCUCAGUAUUCUACTT against Vmn1r49: inactive: 0.0272; for GGCAGGCAAAAAGCCUUUUTT against Olfr1022: inactive: 0.687.
As to GCUAUCCUUUCUUGCUGCATT against Tlr12, the z-score is inactive: -0.0347.
The same measure for GGUCUUCAAGGCACAUAAGTT against Zbtb46: inactive: -0.489.
As for GGUGCUAUUAUCGUGGAUCTT against Unc45a, the z-score was inactive: 0.463.
The same measure for CAGCUCUCUUGCUCAAACATT against Olfr815: inactive: -0.829; for GCUAAGAGCUGAAAGUGAATT against Cep170: inactive: -0.0689.
The same measure for GGGCUUUCUUUAUUUUGUGTT against Lcn10: inactive: -0.347.
The same measure for GGUGGUUUGUGUUACAUUUTT against Ifnar2: active: 2.38; for CGAAACAUCAAUAAAUGCUTT against Penk: inactive: 0.18; for GGUGUAGCUGGAAUUGGCATT against Nlrp4b: inactive: -0.0207.
Consider GGGUUCAGACAUGUUGUUATT against Ang, for which the z-score is inactive: -0.577.
Next, GGUGCUCUGAGGAACUCCATT against Olfr1491: inactive: 0.622.
Next, GCUUAAUGAGGAAAUACCATT against Ptpn12: inactive: 0.759; CGCAAAACCGGGUCAAAUCTT against F9: inactive: 1.96.
GGUAAAACAGGUUUAGAGATT against Slc1a4: the z-score is inactive: -0.46.
Turning to GGAUACCUUGCCUUUCUUATT against Bmpr1a, the z-score was inactive: -0.538.
The same measure for GGGACAGGUUGAGGUCUAUTT against Vmn1r233: active: 2.01.
Next, GACCCAGAAAAAGGAGGGCTT against H2bc1: inactive: 1.14.
The same measure for GGAAUGGUUUUUCAAGACUTT against Iqca1l: inactive: -0.889; for GCCCAAGAGUUGAGAUUCUTT against Kcnj14: inactive: 0.301.
Consider GGUGUUCGACUUUGAGCGCTT against Smad6, for which the z-score was inactive: 1.88.
In the case of GGUUUUUCAAUUAAACGGATT against Cd63, the z-score is inactive: -0.659.
Next, GCUCCAGAUGUUCAGAGCUTT against Fbxo9: active: -2.43; AACCAACUCAGCUUACAUUTT against Tcaim: inactive: -0.156; GGAAGAAUCCACUUUGAACTT against Chil4: inactive: 0.048.
The same measure for GGUCAUGGCAUUGAACAGUTT against Tbc1d7: inactive: -0.123.
The same measure for GGGACCAGAUGAAGAAGGATT against Coq4: inactive: 0.267; for GGAGAAGAGUUAUUGGAUATT against Dnajb4: inactive: 0.901.
In the case of GGUUGUGCUGAAGAGGUUGTT against Rpl18, the z-score is inactive: 0.249.
Next, CCGGUCACCAAAUGACUUATT against Gm5105: inactive: 0.264; GGACUGUGAAAAGAUGUACTT against Prss30: inactive: -0.835.
Next, GGUGACUGACAGCUGCCAATT against Prima1: inactive: 0.0318; GGAAUGGAUAAAAACAUUGTT against Tank: inactive: 1.27; GCUAACCAGUAACUUCGAATT against Deup1: inactive: -0.741.
Next, GGAUUAUGUCCUGAAGAUGTT against Cyp8b1: inactive: 0.526.
As for CGCCGAAACACUCGUUAUATT against Atp13a2, the z-score was inactive: -0.153.
As for GGUGAAGCUCACCAACAAUTT against Tbx20, the z-score is inactive: 0.301.
The same measure for CCUCUGGAGGAGUAAGGUUTT against Trh: inactive: -0.497; for GGUUCAGAUAUCUCAGUAUTT against Rcor2: inactive: -0.999.
Next, CCGUUUAUAAAGAUCAGCUTT against Sar1b: inactive: 1.92; GGACCACUCUGGUGGAUAATT against Stt3b: inactive: 0.341; GGGCUACUGAGAAAAUUACTT against Prr14: inactive: -0.206.
The same measure for CCGAGAACUACCUGUGUAATT against Unc119b: inactive: 0.266; for GGAUAUAAGACACAAGCUGTT against Gbp4: inactive: 0.607.
Turning to GGAAAAAAGCCGGGAAACCTT against Cd99, the z-score is inactive: -1.07.
The same measure for CCACUCUUAAGAGGAUAUATT against Them6: inactive: 1.33.
UCUAUGCAUGGCCCUUUAATT against Olfr726: the z-score is inactive: 0.666.
As for GGGCUUAUUGGAAGUCAGATT against Ttc13, the z-score was inactive: -0.248.
Next, GGUCUUUCAGUUGGAUAUATT against Celsr2: inactive: 0.627; GGUUUCACUAAGACUUAACTT against Ddx27: inactive: -0.869.
Regarding GGUCACAAACAGAUUAAUUTT against Ahcy, the z-score is inactive: -0.404.
The same measure for GGCUAUGUCUGUUUCCUUUTT against Defa-rs10: inactive: 0.963; for GACACCUACUUCAUUGGCCTT against Olfr1245: inactive: -1.23; for GGAGAUUCAUCGCUACCUUTT against Ccna1: active: 2.46.
The same measure for GGCAGAUGAGGGCUUAGCATT against Aph1a: inactive: -1.08.
Next, GGAUGAAGUGGAAGAUUACTT against Naip2: inactive: 0.1; GGAACUUACAUCAGAAAUGTT against Zdhhc2: inactive: -1.61.
With GCCGGAUGGCACAUUCGUATT against Cda, the z-score was inactive: -0.281.
Next, AAAAAUGUCGGAUUCCCAATT against Adgrf3: inactive: -0.121; GGCAUAUUCCGUUUUUAAATT against Pafah1b1: inactive: -1.09.
GGAGCAGGUGCUUUUGGAUTT against Cat: the z-score was inactive: 0.546.
Next, GGAUACUGUUCCUUUAUAUTT against Slc15a2: inactive: 0.134; GGAUUCCAUGGACAAAACUTT against Uhrf1bp1l: inactive: 0.63; GGAGAAGUGUUAUCUAUGUTT against Uimc1: inactive: -0.637.
As for GGAUGAUGUUCUUAAUGCUTT against Exph5, the z-score was inactive: 0.154.
